# Measurements from patent US10100097B2 (Zealand Pharma A/S, priority 2012, dated 2018).
# Square brackets hold non-standard residues; d marks the D form. Aib = CC(C)(N)C(=O)O
# Assay: general procedure: Fmoc solid-phase peptide synthesis; TentaGel S Ram S resin
# Details: whole synthesis, analytical HPLC and MS, scale of the general procedure 1 g resin, 0.25 mmol/g
substance,measurement,value
H-Y[Aib]EGTFISDYSIYLEKKAAKEFVNWLLAQK-NH2,final HPLC purity,96%
